# Test results published in PubChem BioAssay (EPA / NIEHS).
# Amino acid sequences for entries named in this document (tags omitted). A change or cut given only in a name is not applied to a line headed by its entry.
# UniProt P49841: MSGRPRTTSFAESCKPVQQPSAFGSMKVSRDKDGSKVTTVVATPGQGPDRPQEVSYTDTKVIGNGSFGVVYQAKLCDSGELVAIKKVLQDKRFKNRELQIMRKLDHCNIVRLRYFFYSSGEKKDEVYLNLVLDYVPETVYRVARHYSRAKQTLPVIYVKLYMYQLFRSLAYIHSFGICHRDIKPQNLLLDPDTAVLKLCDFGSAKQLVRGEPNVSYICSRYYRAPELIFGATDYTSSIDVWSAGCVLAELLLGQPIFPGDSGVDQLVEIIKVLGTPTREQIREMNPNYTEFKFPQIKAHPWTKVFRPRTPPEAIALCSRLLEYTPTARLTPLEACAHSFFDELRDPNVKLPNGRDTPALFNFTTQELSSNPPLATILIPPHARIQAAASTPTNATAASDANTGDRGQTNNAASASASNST
# UniProt P03372, whole entry, looked up: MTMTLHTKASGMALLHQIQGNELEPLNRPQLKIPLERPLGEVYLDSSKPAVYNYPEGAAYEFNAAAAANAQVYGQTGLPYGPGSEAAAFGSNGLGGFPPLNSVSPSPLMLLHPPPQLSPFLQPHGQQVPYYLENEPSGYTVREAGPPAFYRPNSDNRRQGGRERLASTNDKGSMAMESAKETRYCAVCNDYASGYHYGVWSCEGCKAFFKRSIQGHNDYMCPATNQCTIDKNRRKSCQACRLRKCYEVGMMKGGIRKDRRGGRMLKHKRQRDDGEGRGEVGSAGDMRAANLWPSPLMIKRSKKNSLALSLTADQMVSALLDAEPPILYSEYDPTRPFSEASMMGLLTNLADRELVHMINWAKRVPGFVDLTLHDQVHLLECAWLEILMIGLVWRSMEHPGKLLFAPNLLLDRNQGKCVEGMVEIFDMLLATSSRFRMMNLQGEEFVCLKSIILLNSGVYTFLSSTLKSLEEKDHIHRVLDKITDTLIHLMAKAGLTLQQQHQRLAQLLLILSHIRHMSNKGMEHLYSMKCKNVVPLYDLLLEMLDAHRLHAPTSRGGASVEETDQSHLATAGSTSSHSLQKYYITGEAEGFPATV
# UniProt P28190, whole entry, looked up: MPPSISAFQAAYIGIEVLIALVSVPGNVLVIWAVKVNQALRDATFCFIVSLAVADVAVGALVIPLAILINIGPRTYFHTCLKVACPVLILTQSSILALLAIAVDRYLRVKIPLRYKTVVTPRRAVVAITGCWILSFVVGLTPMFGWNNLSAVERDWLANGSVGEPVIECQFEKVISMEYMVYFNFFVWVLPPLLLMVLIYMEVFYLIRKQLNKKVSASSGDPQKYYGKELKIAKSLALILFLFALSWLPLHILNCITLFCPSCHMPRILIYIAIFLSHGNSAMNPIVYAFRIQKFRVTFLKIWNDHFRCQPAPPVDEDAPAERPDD
# UniProt P15204: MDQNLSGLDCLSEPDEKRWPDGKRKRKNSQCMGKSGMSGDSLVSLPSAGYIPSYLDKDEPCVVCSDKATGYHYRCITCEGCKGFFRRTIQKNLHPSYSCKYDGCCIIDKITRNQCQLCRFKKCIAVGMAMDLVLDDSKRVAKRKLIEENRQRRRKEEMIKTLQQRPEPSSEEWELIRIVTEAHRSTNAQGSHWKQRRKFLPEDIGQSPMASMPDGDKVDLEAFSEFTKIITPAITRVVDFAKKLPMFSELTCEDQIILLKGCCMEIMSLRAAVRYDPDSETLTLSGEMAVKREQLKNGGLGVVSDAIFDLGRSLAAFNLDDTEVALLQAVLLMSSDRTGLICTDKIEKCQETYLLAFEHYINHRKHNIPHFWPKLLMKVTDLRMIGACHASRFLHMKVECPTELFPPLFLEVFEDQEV
# UniProt P21709: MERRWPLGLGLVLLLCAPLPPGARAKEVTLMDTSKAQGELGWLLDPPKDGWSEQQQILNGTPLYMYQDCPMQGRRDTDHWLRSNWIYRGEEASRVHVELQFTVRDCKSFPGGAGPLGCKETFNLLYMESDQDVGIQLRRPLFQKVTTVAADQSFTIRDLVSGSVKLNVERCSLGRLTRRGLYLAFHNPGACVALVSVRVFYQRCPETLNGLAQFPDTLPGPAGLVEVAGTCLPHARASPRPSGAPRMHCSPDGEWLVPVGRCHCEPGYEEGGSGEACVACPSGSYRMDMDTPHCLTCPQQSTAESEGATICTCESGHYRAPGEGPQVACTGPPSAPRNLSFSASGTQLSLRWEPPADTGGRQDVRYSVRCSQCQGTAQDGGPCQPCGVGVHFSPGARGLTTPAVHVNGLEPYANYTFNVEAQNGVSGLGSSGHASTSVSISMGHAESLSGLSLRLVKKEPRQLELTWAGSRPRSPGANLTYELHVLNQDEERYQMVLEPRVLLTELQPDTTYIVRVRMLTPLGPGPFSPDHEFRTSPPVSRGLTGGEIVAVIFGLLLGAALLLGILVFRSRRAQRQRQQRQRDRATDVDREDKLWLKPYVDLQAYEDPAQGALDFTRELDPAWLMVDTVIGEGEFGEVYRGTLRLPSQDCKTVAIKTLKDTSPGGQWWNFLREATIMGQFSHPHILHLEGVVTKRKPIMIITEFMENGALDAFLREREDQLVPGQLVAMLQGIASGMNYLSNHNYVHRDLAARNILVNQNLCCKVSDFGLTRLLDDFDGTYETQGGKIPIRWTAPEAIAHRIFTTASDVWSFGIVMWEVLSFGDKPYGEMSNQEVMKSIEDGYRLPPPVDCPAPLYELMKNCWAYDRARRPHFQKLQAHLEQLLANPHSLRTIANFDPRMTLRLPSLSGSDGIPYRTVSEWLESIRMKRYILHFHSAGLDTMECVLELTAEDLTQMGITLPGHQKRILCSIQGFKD
# UniProt O75469: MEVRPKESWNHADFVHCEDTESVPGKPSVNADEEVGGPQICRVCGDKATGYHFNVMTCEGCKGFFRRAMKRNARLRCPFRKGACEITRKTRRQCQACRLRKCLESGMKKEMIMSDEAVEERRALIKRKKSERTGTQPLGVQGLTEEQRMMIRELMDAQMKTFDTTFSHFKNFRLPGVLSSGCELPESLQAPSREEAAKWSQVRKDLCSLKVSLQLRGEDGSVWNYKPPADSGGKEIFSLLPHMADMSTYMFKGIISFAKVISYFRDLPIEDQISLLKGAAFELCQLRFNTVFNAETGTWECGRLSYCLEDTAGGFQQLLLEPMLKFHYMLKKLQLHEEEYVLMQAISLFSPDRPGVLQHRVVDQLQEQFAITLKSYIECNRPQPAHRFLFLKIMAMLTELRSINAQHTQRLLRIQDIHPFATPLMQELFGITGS
# UniProt P20789, whole entry, looked up: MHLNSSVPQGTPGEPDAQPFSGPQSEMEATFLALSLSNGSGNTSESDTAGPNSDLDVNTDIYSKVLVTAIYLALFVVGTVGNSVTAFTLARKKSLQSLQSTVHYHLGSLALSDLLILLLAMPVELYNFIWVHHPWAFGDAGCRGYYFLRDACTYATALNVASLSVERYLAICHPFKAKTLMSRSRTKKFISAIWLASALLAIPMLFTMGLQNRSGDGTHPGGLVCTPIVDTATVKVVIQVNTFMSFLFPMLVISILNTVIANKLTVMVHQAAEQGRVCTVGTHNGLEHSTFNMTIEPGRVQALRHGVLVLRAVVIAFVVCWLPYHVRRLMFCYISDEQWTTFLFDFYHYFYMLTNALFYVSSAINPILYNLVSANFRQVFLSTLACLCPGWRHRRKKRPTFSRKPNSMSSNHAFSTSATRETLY
# UniProt P06401: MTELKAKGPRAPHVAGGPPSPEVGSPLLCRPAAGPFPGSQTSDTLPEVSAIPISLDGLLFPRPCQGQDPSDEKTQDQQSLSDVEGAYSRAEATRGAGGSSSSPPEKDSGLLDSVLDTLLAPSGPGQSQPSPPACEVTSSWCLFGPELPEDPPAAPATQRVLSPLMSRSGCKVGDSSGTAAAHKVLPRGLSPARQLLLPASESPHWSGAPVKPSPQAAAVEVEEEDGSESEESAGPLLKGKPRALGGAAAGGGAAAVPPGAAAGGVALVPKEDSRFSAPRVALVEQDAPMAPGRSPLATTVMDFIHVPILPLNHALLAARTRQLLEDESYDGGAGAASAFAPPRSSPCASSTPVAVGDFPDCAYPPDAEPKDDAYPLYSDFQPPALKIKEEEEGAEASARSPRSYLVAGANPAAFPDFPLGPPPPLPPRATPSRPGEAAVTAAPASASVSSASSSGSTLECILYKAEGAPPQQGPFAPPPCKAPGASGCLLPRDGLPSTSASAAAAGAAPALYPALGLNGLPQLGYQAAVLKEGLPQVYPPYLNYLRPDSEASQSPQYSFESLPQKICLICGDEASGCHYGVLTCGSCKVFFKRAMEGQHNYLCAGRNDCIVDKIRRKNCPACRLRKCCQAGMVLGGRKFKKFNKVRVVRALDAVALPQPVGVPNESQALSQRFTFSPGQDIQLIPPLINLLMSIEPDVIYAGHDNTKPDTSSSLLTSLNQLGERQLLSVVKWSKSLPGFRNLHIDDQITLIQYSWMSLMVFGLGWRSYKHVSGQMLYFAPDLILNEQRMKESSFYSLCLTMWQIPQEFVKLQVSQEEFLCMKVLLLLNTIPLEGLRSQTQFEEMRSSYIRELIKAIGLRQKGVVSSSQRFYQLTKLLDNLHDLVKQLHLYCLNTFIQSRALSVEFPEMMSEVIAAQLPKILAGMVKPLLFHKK
# UniProt P10586, whole entry, looked up: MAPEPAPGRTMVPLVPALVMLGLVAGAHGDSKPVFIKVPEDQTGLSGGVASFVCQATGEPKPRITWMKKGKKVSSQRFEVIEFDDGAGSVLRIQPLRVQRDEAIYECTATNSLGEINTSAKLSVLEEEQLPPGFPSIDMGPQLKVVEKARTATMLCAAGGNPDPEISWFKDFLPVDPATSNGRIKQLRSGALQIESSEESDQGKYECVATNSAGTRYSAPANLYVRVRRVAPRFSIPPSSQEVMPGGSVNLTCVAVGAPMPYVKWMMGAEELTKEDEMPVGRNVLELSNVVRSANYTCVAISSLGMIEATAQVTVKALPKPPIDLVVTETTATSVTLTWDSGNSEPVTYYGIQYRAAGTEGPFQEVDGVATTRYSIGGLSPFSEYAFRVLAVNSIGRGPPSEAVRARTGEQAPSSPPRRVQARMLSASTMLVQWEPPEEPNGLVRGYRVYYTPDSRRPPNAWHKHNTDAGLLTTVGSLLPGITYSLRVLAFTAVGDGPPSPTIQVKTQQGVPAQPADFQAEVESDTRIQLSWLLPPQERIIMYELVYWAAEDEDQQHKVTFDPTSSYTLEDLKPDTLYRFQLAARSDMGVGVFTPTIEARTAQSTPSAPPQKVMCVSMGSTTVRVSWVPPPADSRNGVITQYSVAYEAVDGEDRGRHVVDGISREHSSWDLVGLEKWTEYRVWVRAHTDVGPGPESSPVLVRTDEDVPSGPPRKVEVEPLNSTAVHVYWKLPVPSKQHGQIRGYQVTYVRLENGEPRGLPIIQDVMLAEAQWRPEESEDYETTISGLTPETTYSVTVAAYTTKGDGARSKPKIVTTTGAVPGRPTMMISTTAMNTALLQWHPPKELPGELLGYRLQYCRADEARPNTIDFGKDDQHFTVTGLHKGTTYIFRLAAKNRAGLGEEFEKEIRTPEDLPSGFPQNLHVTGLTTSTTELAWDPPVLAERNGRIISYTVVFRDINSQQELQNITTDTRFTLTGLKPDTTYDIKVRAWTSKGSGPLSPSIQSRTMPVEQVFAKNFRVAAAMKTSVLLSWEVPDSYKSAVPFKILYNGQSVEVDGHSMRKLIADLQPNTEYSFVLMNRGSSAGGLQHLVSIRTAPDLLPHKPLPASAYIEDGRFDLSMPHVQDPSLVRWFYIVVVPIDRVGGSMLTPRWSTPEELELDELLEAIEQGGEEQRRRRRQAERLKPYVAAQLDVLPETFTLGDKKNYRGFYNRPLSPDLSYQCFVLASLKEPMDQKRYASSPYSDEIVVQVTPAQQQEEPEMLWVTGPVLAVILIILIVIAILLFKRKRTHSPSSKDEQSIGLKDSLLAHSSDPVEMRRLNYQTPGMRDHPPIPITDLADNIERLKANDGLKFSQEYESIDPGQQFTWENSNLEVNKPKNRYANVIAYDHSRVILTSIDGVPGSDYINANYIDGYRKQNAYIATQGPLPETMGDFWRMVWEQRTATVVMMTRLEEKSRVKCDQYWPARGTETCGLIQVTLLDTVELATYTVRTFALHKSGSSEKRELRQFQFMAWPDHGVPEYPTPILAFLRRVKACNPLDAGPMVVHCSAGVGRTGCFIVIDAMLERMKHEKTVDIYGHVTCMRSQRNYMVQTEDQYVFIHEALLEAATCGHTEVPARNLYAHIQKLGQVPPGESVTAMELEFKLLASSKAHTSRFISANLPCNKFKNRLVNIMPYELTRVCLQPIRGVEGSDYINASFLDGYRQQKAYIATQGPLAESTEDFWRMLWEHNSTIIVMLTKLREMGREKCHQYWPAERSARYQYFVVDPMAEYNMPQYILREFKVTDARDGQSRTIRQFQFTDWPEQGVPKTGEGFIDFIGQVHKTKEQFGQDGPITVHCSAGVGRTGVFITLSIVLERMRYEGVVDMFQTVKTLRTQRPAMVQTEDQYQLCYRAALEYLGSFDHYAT
# “And” between values parts separate entries of the source, which are not always exact repeats. Equal entries are not always repeated. The inconclusive results got no clear call from the source; some entries with a clear call stand among them for comparison. For some of these results: Where the call is inconclusive, the potency comes from a doubtful curve fit. The source holds several records for some structures; these can differ, active in one and inactive in another. The source made the active and inactive calls. Rule for the calls: active = hit-call score of the fitted dose curve at least 0.9, where 1 is the maximum; inconclusive = response in the unintended direction; inactive = score below 0.9.
# Experiments:
# [1] = target: Glycogen synthase kinase-3 beta (Homo sapiens) (UniProt P49841); experiment: NVS_ENZ_hGSK3b: NovaScreen (NVS) Enzymatic Assay for human Glycogen Synthase Kinase-3 beta (GSK3b) (AID 2283165)
# Method in brief: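 Recombinant enzyme with specific fluorescent substrate, 1 h, product separated by electrophoretic mobility shift. Primary duplicate screen at 25 uM; actives (e.g. 30% inhibition) followed in singleton concentration-response to 50 uM. Signal loss fitted versus DMSO.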
# [2] = target: Estrogen receptor (Homo sapiens) (UniProt P03372); experiment: NVS_NR_hER: NovaScreen (NVS) Nuclear Receptor Binding Assay for human Estrogen Receptor (ER) (AID 2283348)
# Method in brief: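 MCF7-derived receptor extract, radiolabelled ligand, competitive displacement. Read: scintillation counts at 18 h. DMSO = negative control/baseline. Primary 25 uM duplicate; follow-up concentration–response.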
# [3] = target: Serine/threonine-protein phosphatase PP1-alpha catalytic subunit (Homo sapiens) (UniProt P62136); experiment: NVS_ENZ_hPPP1CA: NovaScreen (NVS) Enzymatic Assay for human Protein Phosphatase 1 Aatalytic subunit Alpha (PPP1CA) (AID 2283200)
# Method in brief: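 Chemicals were first screened in duplicate at 25 uM, and those passing threshold (e.g. 30% inhibition) were run as concentration series to 50 uM. Cell-free recombinant protein, 1.33 h read, fluorescent substrate/product mobility-shift detection, normalised to DMSO.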
# [4] = target: human Adenosine A2a Receptor (AdoRA2a), ADORA2A (gene 135) (UniProt P29274); experiment: NVS_GPCR_hAdoRA2a: NovaScreen (NVS) G Protein-Coupled Receptor Assay for human Adenosine A2a Receptor (AdoRA2a) (AID 2283256)
# Method in brief: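 HEK293-derived receptor preparation, radioligand displacement, 1.5 h, filtration + scintillation read. Loss of bound signal scored vs DMSO. Single-point 25 uM in duplicate first, then concentration-response for actives.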
# [5] = target: Adenosine receptor A1 (Bos taurus) (UniProt P28190); experiment: NVS_GPCR_bAdoR_NonSelective: NovaScreen (NVS) G Protein-Coupled Receptor Assay for bovine Adenosine Receptor (AdoR), Non-selective Binding (AID 2283244)
# Method in brief: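 Cell-free binding with membranes from bovine striatum: radioligand displaced by test chemical, read after 1 h by filtration and scintillation. Single-point 25 uM duplicate primary, 50 uM top concentration in follow-up curves, DMSO baseline.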
# [6] = target: D(1A) dopamine receptor (Homo sapiens) (UniProt P21728); experiment: NVS_GPCR_hDRD1: NovaScreen (NVS) G Protein-Coupled Receptor Assay for human Dopamine Receptor D1 (DRD1) (AID 2283269)
# Method in brief: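 Radioligand displacement binding on membranes/protein extracted from HEK293 expressing human D1, cell-free; read 1 h after dosing by filter-based scintillation counting. Primary screen in duplicate at 25 uM, actives followed up in concentration series; signal loss versus DMSO baseline.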
# [7] = target: rat Constitutive Nitric Oxide Synthase (CNOS), Nos1 (gene 24598) (UniProt P29476); experiment: NVS_ENZ_rCNOS: NovaScreen (NVS) Enzymatic Assay for rat Constitutive Nitric Oxide Synthase (CNOS) (AID 2283236)
# Method in brief: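 Single 25 uM duplicate screen, then concentration series to 50 uM for chemicals meeting threshold. Rat brain membrane-derived CNOS activity detected radiometrically by filtration and scintillation counting, 1 h after compound addition; DMSO as baseline.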
# [8] = read-out: xenobiotic metabolism (CYP1A2), CYP1A2 (gene 1544); experiment: CLD_CYP1A2_48hr: CellzDirect (CLD) Gene Expression Assay for xenobiotic metabolism (CYP1A2) at 48 hours (AID 2283703)
# Method in brief: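 Cytotoxicity was flagged yes/no from morphology, while CYP1A2 transcript induction was detected by qNPA chemiluminescence after a 48-hour exposure. Human primary hepatocyte cultures from separate donors received fresh dosing solutions daily over two days, with 0.2% DMSO as vehicle and baseline.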
# [9] = ATG_M_32_XSP1: Attagene TRANS-FACTORIAL Multi-Species (XSP1) HepG2 Assay for M32 Transcription Factor (Internal Marker) (AID 2283799)
# Method in brief: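 Reporter transcripts from the M32 internal-control unit measured by RT-PCR, FAM labelling, HpaI digestion and capillary electrophoresis after 24 h compound exposure of transfected HepG2, 3 nM 6-alpha-fluorotestosterone included; DMSO baseline, positive-direction fit.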
# [10] = target: frog Thyroid hormone Receptor alpha (TRa), thra-a (gene 397942) (UniProt P15204); experiment: ATG_frTRa_XSP2: Attagene TRANS-FACTORIAL Multi-Species (XSP2) HepG2 Assay for frog Thyroid hormone Receptor alpha (TRa) (AID 2283839);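 note: AC50 reflects induction of frog TRa-driven reporter mRNA above DMSO baseline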
# Method in brief: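 Transfect HepG2 with multiple reporter units (GAL4-UAS), dose chemical, incubate 24 h. Isolate RNA, reverse-transcribe, PCR-amplify reporter, label with 6-FAM by primer extension, digest with HpaI, run capillary electrophoresis; induction scored against DMSO.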
# [11] = target: human Ephrin type-A Receptor 1 (EphA1), EPHA1 (gene 2041) (UniProt P21709); experiment: NVS_ENZ_hEphA1: NovaScreen (NVS) Enzymatic Assay for human Ephrin type-A Receptor 1 (EphA1) (AID 2283158);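 note: activity is signal loss versus DMSO meaning EphA1 kinase inhibition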
# Method in brief: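 Chemicals first tested in duplicate at 25 uM against recombinant EphA1 with a fluorescent substrate; those passing threshold went to singleton dose-response topping at 50 uM. Activity read 1 h later as mobility-shift fluorescence, loss of signal relative to DMSO.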
# [12] = target: Nuclear receptor subfamily 1 group I member 2 (Homo sapiens) (UniProt O75469); experiment: NVS_NR_hPXR: NovaScreen (NVS) Nuclear Receptor Binding Assay for human Pregnane X Receptor (PXR) (AID 2283365);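 note: a drop in FRET signal versus DMSO baseline means the compound binds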
# Method in brief: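 Human PXR protein, cell-free; compound added, incubated 2 h, TR-FRET read. Signal decrease vs DMSO = binding. Screened 25 uM duplicate, actives re-run as dilution series.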
# [13] = target: rat Neurotensin Receptor (NTS), Ntsr1 (gene 366274) (UniProt P20789); experiment: NVS_GPCR_rNTS: NovaScreen (NVS) G Protein-Coupled Receptor Assay for rat Neurotensin Receptor (NTS) (AID 2283308)
# Method in brief: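 Single-point duplicates at 25 uM, then concentration series to 50 uM max for hits, measured radioligand displacement on rat forebrain membrane preparations. Bound label counted by filtration scintillation at 1 h; signal loss relative to DMSO fitted.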
# [14] = IUF_NPC4_neurite_area_120hr: Leibniz Research Institute for Environmental Medicine (IUF) 120-hour Neuronal Morphology Assay for Neurite Area (NPC4) (AID 2284305)
# Method in brief: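 hNPC spheres on PDL/laminin, N2 medium, 37C/5% CO2; dosed day 0, half-medium refresh day 3; fixed 120 h; TUBB3/Hoechst ICC, high-content imaging; neurite area = mean pixels per neuron (nuclei excluded); DMSO baseline, max 0.1%.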
# [15] = target: PGR (gene 5241) (UniProt P06401); experiment: NVS_NR_hPR: NovaScreen (NVS) Nuclear Receptor Binding Assay for human Progestron Receptor (PR) (AID 2283360);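 note: active means loss of bound radioligand signal versus DMSO baseline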
# Method in brief: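 Radioligand competition binding on receptor extracted from T47D cells, read by scintillation counting 18 h after dosing. Loss of signal versus DMSO; primary screen in duplicate at 25 uM, actives followed in concentration series.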
# [16] = Tanguay_ZF_120hpf_PE_legacy: (Legacy) Oregon State University Tanguay Lab 120 Hour Post-fertilization zebrafish Assay for Pericardial Edema (AID 2283640);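 note: potency for increased incidence of pericardial edema versus DMSO baseline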
# Method in brief: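 Embryos from wild-type 5D adults were staged, then dosed in 0.64% DMSO. They were kept sealed in the dark at 28C until 120 hpf. Pericardial edema was then recorded as present or absent.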
# [17] = target: Estrogen receptor (Homo sapiens) (UniProt P03372); experiment: OT_ER_ERaERa_0480: Odyssey Thera (OT) 8-hour HEK293T Protein-Complementation Assay for Estrogen Receptor-alpha/-alpha Homodimer (AID 2283351);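 note: rise in fluorescence from reassembled reporter fragments on ERα LBD homodimer in nucleus or whole cell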
# Method in brief: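 Read-out: fluorescence intensity rise relative to DMSO, nuclear for agonists, nuclear plus cytoplasmic for antagonists. Construct is the ERα LBD (aa 310-547) homodimer fragment-complementation pair, stably expressed in HEK293T; exposure 8 h.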
# [18] = target: human Protein Tyrosine Phosphatase Receptor Type F (PTPRF), PTPRF (gene 5792) (UniProt P10586); experiment: NVS_ENZ_hPTPRF: NovaScreen (NVS) Enzymatic Assay for human Protein Tyrosine Phosphatase Receptor Type F (PTPRF) (AID 2283213)
# Method in brief: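 Cell-free fluorescence enzyme assay with recombinant protein and substrate; product separated by electrophoretic mobility shift. Read 1 h after dosing, single 25 uM duplicate screen, then concentration-response up to 50 uM; loss of signal vs DMSO.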
# [19] = Tanguay_ZF_120hpf_AXIS_legacy: (Legacy) Oregon State University Tanguay Lab 120 Hour Post-fertilization zebrafish Assay for Body Axis Malformation (AID 2283635);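 note: potency for an increased fraction of larvae scored with body axis malformation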
# Method in brief: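 Chorion is removed with pronase at 4 hpf, then single 6 hpf embryos are dosed (final DMSO 0.64%) and held statically at 28C in sealed, foil-covered plates. At 120 hpf body axis malformation is recorded as present or absent.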
compound,measurement,setting,value
ClC(Cl)c1ccccc1,AC50,[1],inconclusive: 25 µM
CCOCCOC(C)=O,outcome,[2],inactive
CCOC(=O)CC(SP(=S)(OC)OC)C(=O)OCC (stereo not given),outcome,[3],inactive
CCCCOC(C)=O,AC50,[4],inconclusive: 7.22 µM
COCCOCCO,AC50,[5],inconclusive: 25 µM
N#CCc1ccc(Cl)cc1,AC50,[4],inconclusive: 2.07 µM
same,AC50,[6],inconclusive: 0.0752 µM
OC(c1ccc(Cl)cc1)(c1cncnc1)c1ccccc1Cl (stereo not given),AC50,[7],inconclusive: 25 µM
same,AC50,[8],inconclusive: 38 µM
same,AC50,[9],inconclusive: 24.1 µM
same,AC50,[10],inconclusive: 100 µM
COC(=O)c1ccccc1S(=O)(=O)NC(=O)N(C)c1nc(C)nc(OC)n1,AC50,[1],inconclusive: 0.697 µM
same,outcome,[3],inactive
Nc1ncc([N+](=O)[O-])s1,AC50,[11],inconclusive: 0.0565 µM
CC(C#N)CCC#N (stereo not given),outcome,[12],inactive
CCNc1nc(Cl)nc(NC(C)C)n1,outcome,[4],inactive
same,outcome,[13],inactive
same,AC50,[2],inconclusive: 25 µM and inconclusive: 273 nM and inconclusive: 7.53 µM
CCOP(=O)(OCC)SCCSCC,AC50,[4],inconclusive: 9.54 µM
OC(Cc1ccccc1Cl)(Cn1[nH]cnc1=S)C1(Cl)CC1 (stereo not given),outcome,[6],inactive
same,AC50,[14],active: 40.3 µM
COP(=O)(OC)O/C(C)=C/C(=O)N(C)C,AC50,[13],inconclusive: 2.46 µM
CON=C(C(=O)OC)c1ccccc1CON=C(C)c1cccc(C(F)(F)F)c1,AC50,[15],inconclusive: 6.19 µM
same,AC50,[16],active: 8.26 µM
same,outcome,[8],inactive
OCC(O)CO,AC50,[17],inconclusive: 50 µM
CCC(C)n1c(=O)[nH]c(C)c(Br)c1=O (stereo not given),outcome,[18],inactive
same,AC50,[7],inconclusive: 0.45 µM
same,AC50,[15],inconclusive: 25 µM
same,AC50,[19],inconclusive: 2.95 µM
CC1COC(Cn2cncn2)(c2ccc(Oc3ccc(Cl)cc3)cc2Cl)O1 (stereo not given),AC50,[19],inconclusive: 149 µM
COC(=O)NS(=O)(=O)c1ccc(N)cc1,AC50,[17],inconclusive: 50 µM
Cc1cccc(C)c1N,AC50,[1],inconclusive: 16.6 µM
CCCCC(CC)COC(=O)c1ccccc1C(=O)OCC(CC)CCCC (stereo not given),outcome,[7],inactive
same,AC50,[15],inconclusive: 25 µM
same,AC50,[16],inconclusive: 202 µM
same,outcome,[9],inactive
same,AC50,[14],inconclusive: 0.0137 µM
CCOP(=S)(OCC)SCSc1ccc(Cl)cc1,AC50,[11],inconclusive: 6.02 µM
CN(CCCC(=O)c1cccnc1)N=O,AC50,[6],inconclusive: 25 µM

# Reformatted bar-delimited: part of the list above
compound | measurement | setting | value
OCC(O)CO | AC50 | [17] | inconclusive: 50 µM
COC(=O)NS(=O)(=O)c1ccc(N)cc1 | AC50 | [17] | inconclusive: 50 µM
CCCCC(CC)COC(=O)c1ccccc1C(=O)OCC(CC)CCCC (stereo not given) | AC50 | [14] | inconclusive: 0.0137 µM
